Experimental data taken from PMC10564737, “Structure-based design of a phosphotyrosine-masked covalent ligand targeting the E3 ligase SOCS2” (Nature Communications, 2023).
Values joined by “and” are separate entries in the source; they are usually repeats but may differ in a detail not shown here. Equal values may be shown once. This continues a long series; more values of the same kind are listed elsewhere.

Amino acid sequences for entries named in this document (tags omitted). Residues count along the entry.
UniProt O14508, 32-198: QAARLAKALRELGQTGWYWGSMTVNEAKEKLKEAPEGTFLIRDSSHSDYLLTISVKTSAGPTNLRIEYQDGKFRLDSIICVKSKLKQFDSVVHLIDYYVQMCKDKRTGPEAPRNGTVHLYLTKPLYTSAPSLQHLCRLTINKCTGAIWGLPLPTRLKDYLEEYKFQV

Target: T1, SBC2 (Homo sapiens, UniProt O14508)
T1 construct: SOCS2 (amino acids 32–198); His6 (N, cleaved yes); made in house; host or cells: E. coli BL21(DE3)
Test: Covalent fluorescence polarization (FP) probe displacement assay
Type: binding
Source text: With the specific covalent modification of Cys111 established, we decided to fully characterize MN551 as a covalent SOCS2 inhibitor. […] (Fig. 2g, h, Supplementary Fig. 9). Due to the covalent nature of the competing inhibitor, a time-dependent reduction in the fraction of protein-bound probe is observed. […] This value illustrates reasonable specificity for a covalent inhibitor, with nonetheless scope for future optimization. In addition to characterizing the kinetic covalency parameters, we have also assessed the stability of the MN551 by monitoring its reactivity (half-life >70 min) with reduced glutathione (GSH) (Supplementary Fig. 10)[35].
To monitor the SBC2-ligand binding kinetics we designed a fluorescein-labeled small-molecule probe - compound 26. The fluorescence polarization (anisotropy) of a threefold serial dilution of 50 µM SBC2 in 10 nM of the probe in 100 mM HEPES pH 7.5, 50 mM NaCl, 0.5 mM TCEP, 2% DMSO was measured to determine the KL (Supplementary Fig. 9A) (BMG Labtech PHERAstar – firmware v1.33). Protein titration and the curves were fitted using GraphPad Prism 9, using one-site fitting models to determine the probe binding constant, KL. Samples were run in triplicate in 384 well plates, using a total volume per well of 16 μL. The bound fraction of the probe is measure using the equation:1 Fb=Af−A/Af−Ab Where,
A time-dependent reduction in probe anisotropy were measured for a 2-fold serial dilution of […] compound MN551 in 10 nM probe +300 μM SBC2. To determine the initial reversible binding affinity, the initial bound fraction of the probe at time = 0, Fbo (the y-intercept in Fb v/s Time plot, Supplementary Fig. 9B) was plotted against MN551 concentration, and the obtained IC50 is then converted to Ki (Supplementary Fig. 9C)[17]. The slope from Fb versus time graph when divided by Fbo gives rate of covalency, kobs. A plot of kobs v/s MN551 concentration using Michaelis–Menten model of GraphPad Prism 9, provides the parameters kinact (maximum potential rate of inactivation) and KI (concentration of MN551 at which kobs = kinact/2) (Supplementary Fig. 9D, E).
The observed first-order rate constant, kobs is related to KI and kinact by the equation:2 kobs=kinactI/KI+I
At [I]«[KI] the above equation is converted to3 […]
The slope from the plot of kobs against concentration of MN551 gives us the covalent efficiency parameter kinact/KI (Supp Fig. 9F)[30],[33].

[1] = MN551 34.5716 nM, Cycle 8 (35 min)
[2] = MN551 34.5716 nM, Cycle 9 (40 min)
[3] = MN551 34.5716 nM, Cycle 10 (45 min)
[4] = MN551 34.5716 nM, Cycle 11 (50 min)
[5] = MN551 34.5716 nM, Cycle 15 (70 min), n=1
[6] = MN551 34.5716 nM, Cycle 16 (75 min), n=1
[7] = MN551 34.5716 nM, Cycle 17 (80 min), n=1
[8] = MN551 34.5716 nM; Cycle 6 (25 min)
[9] = MN551 34.5716 nM; Cycle 7 (30 min)
[10] = MN551 34.5716 nM; Cycle 8 (35 min)
[11] = MN551 34.5716 nM; Cycle 9 (40 min)
[12] = MN551 34.5716 nM; Cycle 10 (45 min)
[13] = MN551 34.5716 nM; Cycle 12 (55 min); n=1
[14] = MN551 34.5716 nM; Cycle 13 (60 min); n=1
[15] = MN551 34.5716 nM; Cycle 14 (65 min); n=1
[16] = MN551 34.5716 nM; Cycle 15 (70 min); n=1
[17] = MN551 34.5716 nM; Cycle 16 (75 min); n=1
[18] = MN551 48.4003 nM, Cycle 8 (35 min)
[19] = MN551 48.4003 nM, Cycle 9 (40 min)
[20] = MN551 48.4003 nM, Cycle 10 (45 min)
[21] = MN551 48.4003 nM, Cycle 11 (50 min)
[22] = MN551 48.4003 nM, Cycle 15 (70 min), n=1
[23] = MN551 48.4003 nM, Cycle 16 (75 min), n=1
[24] = MN551 48.4003 nM, Cycle 17 (80 min), n=1
[25] = MN551 48.4003 nM, Cycle 18 (85 min), n=1
[26] = MN551 48.4003 nM; Cycle 6 (25 min)
[27] = MN551 48.4003 nM; Cycle 7 (30 min)
[28] = MN551 48.4003 nM; Cycle 8 (35 min)

For O=C(CCl)Nc1cccc(CNC(=O)[C@H](Cc2ccc(OP(=O)(O)O)cc2)NC(=O)Cc2ccc(F)cc2)c1 [MN551], the “Anisotropy data 485,520,520” value (MN551 24.694 nM; Cycle 19 (90 min); n=1) was 275.7 and 272.1 and 271.5, the “Anisotropy data 485,520,520” value (MN551 24.694 nM; Cycle 20 (95 min); n=1) was 276.4 and 273 and 271.9 and the Fb (MN551 34.5716 nM, Cycle 7 (30 min)) was 0.9231 and 0.9524 and 0.9443. The “Anisotropy based on Raw Data (485)” value [1] was 272.8 and 277.1 and 280.8, the Fb [1] was 0.8869 and 0.9163 and 0.9381 and the “Anisotropy based on Raw Data (485)” value [2] was 272.2 and 273.3 and 280.8. The Fb [2] was 0.8993 and 0.9292 and 0.9607, the “Anisotropy based on Raw Data (485)” value [3] was 272.1 and 276.8 and 279.5 and the Fb [3] was 0.9166 and 0.9701 and 0.953. For the same compound, the “Anisotropy based on Raw Data (485)” value [4] was 271.9 and 272.2 and 277, the Fb [4] was 0.912 and 0.9155 and 0.9264 and the Anisotropy (MN551 34.5716 nM, Cycle 13 (60 min), n=1) was 281.8 and 280.9 and 278.2. The Anisotropy (MN551 34.5716 nM, Cycle 14 (65 min), n=1) was 280.1 and 277.4 and 275.9, the Anisotropy [5] was 280 and 278.9 and 276.6 and the “Normalised anisotropy (0 nM MN551 = 1, free probe = 0)” value [5] was 1.071 and 1.0408 and 1.031. For the same compound, the Anisotropy [6] was 279.2 and 276.9 and 274.1, the “Normalised anisotropy (0 nM MN551 = 1, free probe = 0)” value [6] was 1.035 and 1.039 and 1.006 and the Anisotropy [7] was 276.8 and 275.1 and 276. The “Normalised anisotropy (0 nM MN551 = 1, free probe = 0)” value [7] was 1.038 and 1.014 and 1.054, the “Fb, fraction bound” value (MN551 34.5716 nM; Cycle 3 (10 min)) was 1.063 and 1.078 and 1.017 and the “Fb, fraction bound” value (MN551 34.5716 nM; Cycle 4 (15 min)) was 1.071 and 1.037 and 1.072. The “Fb, fraction bound” value (MN551 34.5716 nM; Cycle 5 (20 min)) was 1.076 and 1.0403 and 1.068, the “Anisotropy data 485,520,520” value [8] was 275 and 271.2 and 273 and the Fb [8] was 0.9618 and 0.9951 and 1.146. For the same compound, the “Fb, fraction bound” value [8] was 1.0603 and 1.052 and 1.045, the “Anisotropy data 485,520,520” value [9] was 274.7 and 271.9 and 270.8 and the Fb [9] was 0.962 and 1.009 and 1.136. The “Fb, fraction bound” value [9] was 1.021 and 1.045 and 1.044, the Anisotropy [10] was 284.8 and 282 and 281 and the “Anisotropy data 485,520,520” value [10] was 271.5 and 268.4 and 271.9. For the same compound, the Fb [10] was 0.9416 and 1.026 and 1.151 and 1.079 and 1.025 and 1.053, the Anisotropy [11] was 283.4 and 282.5 and 281.2 and the “Anisotropy data 485,520,520” value [11] was 272.7 (2×) and 268.3. The Fb [11] was 0.9468 and 1.0081 and 1.143 and 1.074 and 1.0255 and 1.049, the Anisotropy [12] was 285.2 and 280.6 and 281.5 and the “Anisotropy data 485,520,520” value [12] was 271 and 269.7 and 270.4. The Fb [12] was 0.9701 and 1.038 and 1.161 and 1.082 and 1.018 and 1.0508, the Anisotropy (MN551 34.5716 nM; Cycle 11 (50 min); n=1) was 270.4 and 266.3 and 266.5 and the Anisotropy [13] was 269 and 266.6 and 269.7. For the same compound, the “Anisotropy based on Raw Data (485)” value [13] was 271.9 and 273 and 279.7, the Anisotropy [14] was 270.8 and 265.4 and 266.7 and the “Anisotropy based on Raw Data (485)” value [14] was 269.7 and 271.6 and 275.7. For the same compound, the Anisotropy [15] was 270.2 and 264.8 and 269.3, the “Anisotropy based on Raw Data (485)” value [15] was 270.3 and 272.6 and 275.5 and the Anisotropy [16] was 268.1 and 263.8 and 265.3. For the same compound, the “Anisotropy based on Raw Data (485)” value [16] was 268.6 and 271.7 and 275.2, the Anisotropy [17] was 268.6 and 264 and 267.3 and the “Anisotropy based on Raw Data (485)” value [17] was 270.6 and 272.2 and 274.4. The “Anisotropy data 485,520,520” value (MN551 34.5716 nM; Cycle 19 (90 min); n=1) was 279.7 and 276.9 and 273.7, the “Anisotropy data 485,520,520” value (MN551 34.5716 nM; Cycle 20 (95 min); n=1) was 278.1 and 275.2 and 274.7 and the Fb (MN551 48.4003 nM, Cycle 7 (30 min)) was 0.8782 and 0.9246 and 0.9336. The “Anisotropy based on Raw Data (485)” value [18] was 278.2 and 278.9 and 277.3, the Fb [18] was 0.8787 and 0.899 and 0.9194 and the “Anisotropy based on Raw Data (485)” value [19] was 277.6 and 275.5 and 276.7. The Fb [19] was 0.8575 and 0.9214 and 0.9234, the “Anisotropy based on Raw Data (485)” value [20] was 274.9 and 276 and 277.4 and the Fb [20] was 0.88 and 0.9122 and 0.9097. For the same compound, the “Anisotropy based on Raw Data (485)” value [21] was 277.7 and 274.6 and 278.2, the Fb [21] was 0.8694 and 0.9078 and 0.9264 and the Anisotropy (MN551 48.4003 nM, Cycle 13 (60 min), n=1) was 280.1 and 277 and 273. For the same compound, the Anisotropy (MN551 48.4003 nM, Cycle 14 (65 min), n=1) was 277.7 and 274.5 and 274.6, the Anisotropy [22] was 278.7 and 274.7 and 272 and the “Normalised anisotropy (0 nM MN551 = 1, free probe = 0)” value [22] was 1.058 and 1.001 and 0.9865. The Anisotropy [23] was 277.5 and 275.2 and 272.2, the “Normalised anisotropy (0 nM MN551 = 1, free probe = 0)” value [23] was 1.019 and 1.022 and 0.9876 and the Anisotropy [24] was 275.1 and 273.1 and 270.2. For the same compound, the “Normalised anisotropy (0 nM MN551 = 1, free probe = 0)” value [24] was 1.022 and 0.9942 and 0.9971, the Anisotropy [25] was 276.5 and 273.1 and 272 and the “Normalised anisotropy (0 nM MN551 = 1, free probe = 0)” value [25] was 1.046 and 1.009 and 1.043. The “Fb, fraction bound” value (MN551 48.4003 nM; Cycle 3 (10 min)) was 1.04 and 1.0214 and 1.005, the “Fb, fraction bound” value (MN551 48.4003 nM; Cycle 4 (15 min)) was 1.046 and 1.006 and 1.039 and the “Fb, fraction bound” value (MN551 48.4003 nM; Cycle 5 (20 min)) was 1.0163 and 1.003 and 1.023. The “Anisotropy data 485,520,520” value [26] was 272.2 and 270.3 and 272, the Fb [26] was 1.015 and 1.0265 and 1.112 and the “Fb, fraction bound” value [26] was 1.049 and 1.012 and 1.014. The “Anisotropy data 485,520,520” value [27] was 269.8 and 269.1 and 269.7, the Fb [27] was 1.018 and 1.033 and 1.105 and the “Fb, fraction bound” value [27] was 1.003 and 1.025 and 1.034. For the same compound, the Anisotropy [28] was 280.7 and 279.3 and 278.9 and the “Anisotropy data 485,520,520” value [28] was 270.6 and 266.6 and 269.9.
